Laboratory results published in paper PMC3854790, “CRIS—A Novel cAMP-Binding Protein Controlling Spermiogenesis and the Development of Flagellar Bending” (PLoS Genetics, 2013).

Sequences of proteins named here, by UniProt entry; tags and fusion partners are left off. A change or cut given only in a name is not applied to a line headed by its entry. A line that says so, or that is headed by a name, gives the form on record, which may keep a tag or linker.
UniProt P08414: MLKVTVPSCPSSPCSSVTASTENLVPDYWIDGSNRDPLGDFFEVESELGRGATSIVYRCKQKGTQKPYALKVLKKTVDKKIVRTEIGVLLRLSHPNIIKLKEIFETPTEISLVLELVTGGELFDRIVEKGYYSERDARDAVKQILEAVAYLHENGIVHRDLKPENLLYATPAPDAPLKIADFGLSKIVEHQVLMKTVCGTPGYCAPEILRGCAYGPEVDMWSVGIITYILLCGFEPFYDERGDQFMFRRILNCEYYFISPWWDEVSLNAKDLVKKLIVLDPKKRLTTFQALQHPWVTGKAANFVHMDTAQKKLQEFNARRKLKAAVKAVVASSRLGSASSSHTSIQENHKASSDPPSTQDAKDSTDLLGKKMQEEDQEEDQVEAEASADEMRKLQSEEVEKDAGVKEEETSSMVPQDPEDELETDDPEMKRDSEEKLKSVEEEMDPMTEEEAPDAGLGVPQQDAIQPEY
Dynactin subunit 4 (Q8CBY8-2, form named): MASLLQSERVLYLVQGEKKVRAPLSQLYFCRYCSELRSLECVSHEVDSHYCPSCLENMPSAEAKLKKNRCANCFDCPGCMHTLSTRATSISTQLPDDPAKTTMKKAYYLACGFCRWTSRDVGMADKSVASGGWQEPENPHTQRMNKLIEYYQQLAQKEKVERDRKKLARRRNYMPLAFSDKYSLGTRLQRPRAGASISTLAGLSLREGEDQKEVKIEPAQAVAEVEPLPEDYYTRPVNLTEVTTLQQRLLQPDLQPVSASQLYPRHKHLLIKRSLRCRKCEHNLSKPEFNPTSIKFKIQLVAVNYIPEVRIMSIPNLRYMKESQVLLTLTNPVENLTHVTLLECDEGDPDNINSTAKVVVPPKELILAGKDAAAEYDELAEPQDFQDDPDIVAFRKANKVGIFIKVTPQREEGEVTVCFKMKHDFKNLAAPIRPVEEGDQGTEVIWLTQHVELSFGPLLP
Kinesin-like protein KIF2A (P28740-1, form named): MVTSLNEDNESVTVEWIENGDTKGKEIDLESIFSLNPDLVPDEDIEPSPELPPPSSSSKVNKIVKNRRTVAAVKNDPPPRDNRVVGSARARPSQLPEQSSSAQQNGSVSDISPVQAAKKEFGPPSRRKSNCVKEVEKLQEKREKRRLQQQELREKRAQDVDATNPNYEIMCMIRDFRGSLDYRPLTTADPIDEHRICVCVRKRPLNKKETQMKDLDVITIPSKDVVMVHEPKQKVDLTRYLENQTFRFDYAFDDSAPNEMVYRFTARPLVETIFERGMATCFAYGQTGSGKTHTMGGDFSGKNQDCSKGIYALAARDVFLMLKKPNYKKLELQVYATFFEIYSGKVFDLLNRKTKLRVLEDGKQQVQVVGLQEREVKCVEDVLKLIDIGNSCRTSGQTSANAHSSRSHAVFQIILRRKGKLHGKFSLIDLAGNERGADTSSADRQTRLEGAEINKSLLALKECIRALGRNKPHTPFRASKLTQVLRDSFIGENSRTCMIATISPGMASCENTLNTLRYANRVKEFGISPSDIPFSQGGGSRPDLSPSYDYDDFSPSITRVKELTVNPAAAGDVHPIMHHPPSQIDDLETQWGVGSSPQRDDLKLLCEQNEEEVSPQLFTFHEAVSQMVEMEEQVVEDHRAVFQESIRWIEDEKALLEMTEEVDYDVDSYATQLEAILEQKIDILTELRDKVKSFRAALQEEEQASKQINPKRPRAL
UniProt Q91Y86: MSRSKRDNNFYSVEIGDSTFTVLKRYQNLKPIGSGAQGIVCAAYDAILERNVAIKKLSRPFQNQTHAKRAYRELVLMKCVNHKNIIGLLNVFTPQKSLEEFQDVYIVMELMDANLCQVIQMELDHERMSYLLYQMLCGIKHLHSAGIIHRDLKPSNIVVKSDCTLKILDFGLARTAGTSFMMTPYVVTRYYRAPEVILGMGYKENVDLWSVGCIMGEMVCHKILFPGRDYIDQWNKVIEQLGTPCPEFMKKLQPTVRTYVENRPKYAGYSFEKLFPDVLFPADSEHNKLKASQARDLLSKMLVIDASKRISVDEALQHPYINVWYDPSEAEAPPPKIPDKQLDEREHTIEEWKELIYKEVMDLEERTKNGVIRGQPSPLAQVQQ
UniProt Q9CQJ2: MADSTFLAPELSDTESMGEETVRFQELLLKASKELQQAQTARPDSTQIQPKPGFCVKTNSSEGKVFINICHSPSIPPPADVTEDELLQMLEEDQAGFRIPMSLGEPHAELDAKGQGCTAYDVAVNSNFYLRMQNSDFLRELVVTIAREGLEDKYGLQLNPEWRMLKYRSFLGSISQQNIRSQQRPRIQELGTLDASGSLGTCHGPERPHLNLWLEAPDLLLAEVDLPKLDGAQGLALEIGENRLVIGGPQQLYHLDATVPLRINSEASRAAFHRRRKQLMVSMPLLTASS
UniProt Q99J62: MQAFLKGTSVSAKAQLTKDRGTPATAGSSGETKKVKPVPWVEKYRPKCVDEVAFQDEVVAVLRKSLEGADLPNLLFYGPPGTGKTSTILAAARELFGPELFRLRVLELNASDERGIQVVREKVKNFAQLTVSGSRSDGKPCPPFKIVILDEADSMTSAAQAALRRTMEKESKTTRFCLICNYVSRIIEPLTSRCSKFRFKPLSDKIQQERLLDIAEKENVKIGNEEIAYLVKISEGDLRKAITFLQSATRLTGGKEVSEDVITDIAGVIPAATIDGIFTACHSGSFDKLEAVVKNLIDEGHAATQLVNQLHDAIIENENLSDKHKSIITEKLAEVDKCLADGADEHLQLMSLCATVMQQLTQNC
UniProt Q99PL5: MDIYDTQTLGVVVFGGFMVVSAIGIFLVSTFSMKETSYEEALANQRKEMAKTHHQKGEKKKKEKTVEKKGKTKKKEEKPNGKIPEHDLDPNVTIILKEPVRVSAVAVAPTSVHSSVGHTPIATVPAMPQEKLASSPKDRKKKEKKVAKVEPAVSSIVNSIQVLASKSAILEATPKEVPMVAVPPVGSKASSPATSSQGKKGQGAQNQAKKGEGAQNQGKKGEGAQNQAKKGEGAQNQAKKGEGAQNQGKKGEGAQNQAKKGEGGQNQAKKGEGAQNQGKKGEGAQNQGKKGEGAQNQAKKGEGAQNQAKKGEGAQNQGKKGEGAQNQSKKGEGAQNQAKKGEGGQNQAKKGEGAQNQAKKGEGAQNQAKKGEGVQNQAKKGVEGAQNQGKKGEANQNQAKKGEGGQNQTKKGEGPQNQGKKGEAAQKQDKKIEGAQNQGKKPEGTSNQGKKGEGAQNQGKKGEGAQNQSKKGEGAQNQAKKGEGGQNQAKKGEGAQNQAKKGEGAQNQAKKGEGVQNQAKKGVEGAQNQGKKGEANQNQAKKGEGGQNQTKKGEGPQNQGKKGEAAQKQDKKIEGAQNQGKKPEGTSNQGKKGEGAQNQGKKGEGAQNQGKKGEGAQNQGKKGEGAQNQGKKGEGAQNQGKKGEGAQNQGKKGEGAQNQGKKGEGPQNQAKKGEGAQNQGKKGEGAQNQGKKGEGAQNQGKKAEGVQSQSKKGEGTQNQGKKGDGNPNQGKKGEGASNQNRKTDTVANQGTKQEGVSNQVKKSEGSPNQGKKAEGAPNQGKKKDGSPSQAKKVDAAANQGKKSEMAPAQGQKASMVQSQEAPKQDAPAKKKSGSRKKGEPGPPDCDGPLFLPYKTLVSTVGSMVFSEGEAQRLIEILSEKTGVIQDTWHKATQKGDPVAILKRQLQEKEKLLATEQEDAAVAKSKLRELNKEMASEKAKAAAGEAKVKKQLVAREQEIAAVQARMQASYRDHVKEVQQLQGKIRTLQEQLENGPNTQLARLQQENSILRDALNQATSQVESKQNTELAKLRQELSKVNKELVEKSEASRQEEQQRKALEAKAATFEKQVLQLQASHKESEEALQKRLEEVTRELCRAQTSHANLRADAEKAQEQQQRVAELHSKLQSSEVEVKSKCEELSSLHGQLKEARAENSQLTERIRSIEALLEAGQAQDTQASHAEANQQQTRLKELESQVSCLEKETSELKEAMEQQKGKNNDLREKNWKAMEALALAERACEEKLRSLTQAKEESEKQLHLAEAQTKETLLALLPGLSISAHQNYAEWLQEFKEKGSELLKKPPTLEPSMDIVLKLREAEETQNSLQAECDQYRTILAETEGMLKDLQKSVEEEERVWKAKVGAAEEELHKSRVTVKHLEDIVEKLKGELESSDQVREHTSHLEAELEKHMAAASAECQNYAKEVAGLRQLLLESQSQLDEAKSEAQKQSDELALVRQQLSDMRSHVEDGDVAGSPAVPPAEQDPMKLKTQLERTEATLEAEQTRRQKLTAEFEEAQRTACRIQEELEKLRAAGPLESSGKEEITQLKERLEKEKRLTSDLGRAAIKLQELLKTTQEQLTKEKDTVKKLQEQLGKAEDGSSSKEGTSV

T1: CRIS (cyclic nucleotide receptor involved in sperm function) (mouse (endogenous in sperm precursor cells)) (UniProt Q9D5U8)
T1 sequence: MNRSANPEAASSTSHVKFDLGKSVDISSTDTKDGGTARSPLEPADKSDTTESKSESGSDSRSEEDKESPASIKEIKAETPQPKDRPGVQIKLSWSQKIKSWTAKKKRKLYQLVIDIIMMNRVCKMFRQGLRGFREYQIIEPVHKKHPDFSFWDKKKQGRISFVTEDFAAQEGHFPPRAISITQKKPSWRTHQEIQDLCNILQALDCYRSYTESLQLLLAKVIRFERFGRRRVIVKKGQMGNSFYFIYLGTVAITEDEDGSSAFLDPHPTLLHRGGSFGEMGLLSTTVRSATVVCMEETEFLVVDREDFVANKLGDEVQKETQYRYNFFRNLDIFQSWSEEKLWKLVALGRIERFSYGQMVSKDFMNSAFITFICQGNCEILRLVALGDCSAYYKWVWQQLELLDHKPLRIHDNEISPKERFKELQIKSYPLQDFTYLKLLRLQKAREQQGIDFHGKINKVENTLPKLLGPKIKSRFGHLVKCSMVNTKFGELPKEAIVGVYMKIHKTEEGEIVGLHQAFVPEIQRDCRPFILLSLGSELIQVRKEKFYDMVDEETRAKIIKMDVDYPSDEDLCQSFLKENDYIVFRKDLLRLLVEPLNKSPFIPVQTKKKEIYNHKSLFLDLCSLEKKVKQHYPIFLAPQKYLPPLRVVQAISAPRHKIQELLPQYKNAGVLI

B1: Retinal dehydrogenase 2 (protein, UniProt Q62148 1-518)
chain: MTSSEIAMPGEVKADPAALMASLQLLPSPTPNLEIKYTKIFINNEWQNSESGRVFPVCNPATGEQVCEVQEADKVDIDKAVQAARLAFSLGSVWRRMDASERGRLLDKLADLVERDRATLATMESLNGGKPFLQAFYIDLQGVIKTLRYYAGWADKIHGMTIPVDGDYFTFTRHEPIGVCGQIIPWNFPLLMFTWKIAPALCCGNTVVIKPAEQTPLSALYMGALIKEAGFPPGVVNILPGYGPTAGAAIASHIGIDKIAFTGSTEVGKLIQEAAGRSNLKRVTLELGGKSPNIIFADADLDYAVEQAHQGVFFNQGQCCTAGSRIFVEESIYEEFVKRSVERAKRRIVGSPFDPTTEQGPQIDKKQYNKVLELIQSGVAEGAKLECGGKGLGRKGFFIEPTVFSNVTDDMRIAKEEIFGPVQEILRFKTMDEVIERANNSDFGLVAAVFTNDINKALMVSSAMQAGTVWINCYNALNAQSPFGGFKMSGNGREMGEFGLREYSEVKTVTVKIPQKNS
B2: Selenoprotein W (protein, UniProt P63300 1-88)
chain: MALAVRVVYCGAUGYKPKYLQLKEKLEHEFPGCLDICGEGTPQVTGFFEVTVAGKLVHSKKRGDGYVDTESKFRKLVTAIKAALAQCQ
B3: Oxysterol-binding protein-related protein 11 (protein, UniProt Q8CI95 1-751)
chain: MQGGEPASVMKVSESEGKLEGLATAVTPNKNSGNSSCGGAISSSSSNSSRGGSAKGWQYSDHMESVNGYLMKYTNLVTGWQYRFFVLNNEAGLLEYFVNEQSRNQKPRGTLQLAGAVISPSDEDSHTFTVNAASGEQYKLRATDAKERQHWVSRLQICTQHHTEAIGKNNPPLKSRSFSLASSGNSPISQRRPSQNAMSFFNVGHSKLQSVNKRAHLHPDHLVEVREMMSHAEGQQRDLIRRIECLPASGLLSSLDQDLLMLKATSMATMNCLNDCFHILQLQHASHQKGALPSGTTIEWLEPKIPLSNHYKNGAEQPFATEPNKPMGAPEAQCVAESGVLAREPEDISADDEVEDTCDNKEDDLGAVEEQRSVILHLLSQLKLGMDLTRVVLPTFILEKRSLLEMYADFMSHPDLFIGITNGATPEDRMIRFVEYYLTSFHEGRKGAIAKKPYNPIIGETFHCSWRMPKSEVASGVSSSSSTPAITDHAPLPEEAPTQSVSDCYTVRFVAEQVSHHPPVSGFYAECAERKMCVNAHVWTKSKFLGMSIGVTMVGEGVLCLLEHGEEYTFSLPCAYARSILTVPWVELGGKVSVNCAKTGYSASITFHTKPFYGGKLHRVTAEVKYNLTNTVVCRVQGEWNSVLEFTYSNGETKFVDLAKLAVTKKRVRPLEKQDPFESRRLWKNVTDSLRESEIDKATEHKRSLEERQRTEERLRTETGTPWKTKYFIKEGDGWVYHKPLWKGIPSQPAE
B4: Ras-related protein Rab-5C (protein, UniProt P35278 1-216)
chain: MAGRGGAARPNGPAAGNKICQFKLVLLGESAVGKSSLVLRFVKGQFHEYQESTIGAAFLTQTVCLDDTTVKFEIWDTAGQERYHSLAPMYYRGAQAAIVVYDITNTDTFARAKNWVKELQRQASPNIVIALAGNKADLASKRAVEFQEAQAYADDNSLLFMETSAKTAMNVNEIFMAIAKKLPKNEPQNAAGAPGRTRGVDLQESNPASRSQCCSN
B5: E3 ubiquitin-protein ligase RNF123 (protein, UniProt Q5XPI3-1 1-1314)
chain: MASKGTGMSFSRKSYRLTSDAEKSRVTGIVQEKLLSDYLYRIFSPPDRGPAAATSRKPLNFHNLPEHVDQLLQVDSEDNESQGQVEGRLGPSTVVLDHTGGFEGLLLVDDDLLGVIGHSNFGTIRSTTCVYKGKWVYEVLISSQGLMQIGWCTINCRFNQEEGVGDTHNSYAYDGNRVRKWNVTTTNYGKAWAAGDIVSCLIDLDDGTLSFCLNGVSLGTAFENLSRGLGMAYFPAISLSFKESVAFNFGSRPLRYPVAGFRPLQDPPFADLVRAQRLLGCFQAVLSVELDPVEGRLVETESSEWQLQGQPTVLLTLAHIFHHFAPLLRKVYLVEAVLMSFLLGVVEKGTPEQAQSVVHQILDLLWLFMEDYEVQDCLKQLMMSLLRLYRFSPIVPDLGLQIHYLRLTMSILRHEKSRKFLLSNVLFDMLRSVVFFYIKSPLRVEEAGLKELIPTTWWPHRSSRESRDGKEAREETTEERQRRRAYERGCQRLKKRIEVVEELQVQILKLLLDNKDDNGGEASRYIFLTKFRKFLQENASGRGNTPVLCPPEYMVCFLHRLVSALRFYWDEYKASNPRASFSEEAYIPPQIFYNGKVDYFDLQRLGGLLSHLRKTLKDDLASKANIVIDPLELQAATMDDLDEDEEPAPSAAQRPMQALAIGGALPLPRPGWLSSPTLGRANRFLSTAAVSLMTPRRLLSTMEKVKVRSLNVEQRTREDIEGSHWNEGLLLGRPPEEPEQPLTENSLLEVLDGTVMMYNLSVHQQLGKMVGVSDDVNEYAMALRDTEDKLRRCPKRRKDILAELTKSQKVFSEKLDHLSRRLAWVHATVYSQEKMLDIYWLLRVCLRTIEHGDRTGSLFAFMPEFYLSVAINSYSALKNYFGPVHSMEELPGYEETLTRLAAILAKHFADPRIVGTDIRDSLMQALASYVCYPHSLRAVERIPEEQRIAMVRNLLAPYEQRPWAQTNWILVRLWRGCGFGYRYTRLPHLLKTKPEDANLPSLQKPCPSTLLQQHMADLLRQGSDVAPSFLNSVLNQLNWAFSEFIGMIQEIQQAAERLERNFVDSRQLKVCATCFDLSVSLLRVLEMTITLVPEIFLDWSRPTSEMLLRRLAQLLNQVLNRVTAERNLFDRVVTLRLPGLESVDHYPILVAVTGILVRLLVHGPTSETEQATSVLLADPCFQLRSICYLLGQPEPLAPGTTLPAPDRKRFSLQSYTDYISAEELAQVEQMLAHLTAASAQAAAASLPTNEEDLCPICYAHPISAVFQPCGHKSCKACINQHLMNNKDCFFCKATIVSVEDWDKAANTSAMSSAA

Target: T1, CRIS (cyclic nucleotide receptor involved in sperm function) (mouse (endogenous in sperm precursor cells))
Assay: affinity purification with mass spectrometry; co-immunoprecipitation of endogenous CRIS from sperm precursor cells of wild-type mice; 500 µg total lysate on a column of monoclonal antibody 4B2 or 4E4 covalently coupled to Protein G, overnight at 4°C, washed four times with lysis buffer (10 mM Tris/HCl pH 7.6, 140 mM NaCl, 1 mM EDTA, 1% Triton-X 100), eluted in SDS sample buffer, SDS-PAGE, LC-MS/MS; cells of Cris-deficient mice as negative control

binding, binds:
CCR4-NOT transcription complex subunit 10 (from UniProt Q8BH15-1 1-744)
Calcium/calmodulin-dependent protein kinase type IV (from UniProt P08414)
Cytoplasmic FMR1-interacting protein 1 (from UniProt Q7TMB8-1 1-1253)
Dynactin subunit 4 (from UniProt Q8CBY8-2 1-460)
Intraflagellar transport protein 172 homolog (from UniProt Q6VH22-1 1-1749)
Kinesin-like protein KIF2A (from UniProt P28740-1 1-716)
Mitogen-activated protein kinase 8 (from UniProt Q91Y86 1-384)
Oxysterol-binding protein 1
PIH1 domain-containing protein 1 (from UniProt Q9CQJ2 1-290)
Replication factor C subunit 4 (from UniProt Q99J62 1-364)
Ribosome-binding protein 1 (from UniProt Q99PL5 1-1605)
Serine/threonine-protein kinase N1 (from UniProt P70268-1 1-946)
Serine/threonine-protein phosphatase 2B catalytic subunit alpha isoform (from UniProt P63328-1 1-521)
B1
B2
B3
B4
B5

No constants are given. Whether binding was seen depends on the method and setting. Binding seen in cells or lysates may run through a third protein. These calls come from enrichment with a bait or labelling near it, and not all partners need be listed.
